Assay: Particle size via laser diffraction
Type: physicochemical
Details: powders dispersed in Span85:cyclohexane 0.1% w/v
Protocol: Particle size via laser diffraction. Particle size distributions were measured by laser diffraction (Spraytec® S, Malvern Instruments, Worcestershire, UK). The powders were dispersed in Span85:cyclohexane 0.1% w/v.

SMILES: COc1ccc(CC(C)NCC(O)c2ccc(O)c(NC=O)c2)cc1.COc1ccc(CC(C)NCC(O)c2ccc(O)c(NC=O)c2)cc1.O.O.O=C(O)/C=C/C(=O)O (stereo not drawn) [FF raw material, formoterol fumarate dihydrate]
- d(v0.1): 0.62 μm
- d(v0.5): 1.69 μm
- d(v0.9): 3.27 μm

— patent US10993916B2, “Crystalline microparticles of a beta-agonist coated with a fatty acid” (Chiesi Farmaceutici S.p.A., priority 2011, dated 2021)
